No constants are given. Whether binding was seen depends on the method and setting. Some entries that bind do so weakly or less than the wild type.
Biological target: T1, IFT122 (human) (UniProt Q9HBG6)
T1 sequence: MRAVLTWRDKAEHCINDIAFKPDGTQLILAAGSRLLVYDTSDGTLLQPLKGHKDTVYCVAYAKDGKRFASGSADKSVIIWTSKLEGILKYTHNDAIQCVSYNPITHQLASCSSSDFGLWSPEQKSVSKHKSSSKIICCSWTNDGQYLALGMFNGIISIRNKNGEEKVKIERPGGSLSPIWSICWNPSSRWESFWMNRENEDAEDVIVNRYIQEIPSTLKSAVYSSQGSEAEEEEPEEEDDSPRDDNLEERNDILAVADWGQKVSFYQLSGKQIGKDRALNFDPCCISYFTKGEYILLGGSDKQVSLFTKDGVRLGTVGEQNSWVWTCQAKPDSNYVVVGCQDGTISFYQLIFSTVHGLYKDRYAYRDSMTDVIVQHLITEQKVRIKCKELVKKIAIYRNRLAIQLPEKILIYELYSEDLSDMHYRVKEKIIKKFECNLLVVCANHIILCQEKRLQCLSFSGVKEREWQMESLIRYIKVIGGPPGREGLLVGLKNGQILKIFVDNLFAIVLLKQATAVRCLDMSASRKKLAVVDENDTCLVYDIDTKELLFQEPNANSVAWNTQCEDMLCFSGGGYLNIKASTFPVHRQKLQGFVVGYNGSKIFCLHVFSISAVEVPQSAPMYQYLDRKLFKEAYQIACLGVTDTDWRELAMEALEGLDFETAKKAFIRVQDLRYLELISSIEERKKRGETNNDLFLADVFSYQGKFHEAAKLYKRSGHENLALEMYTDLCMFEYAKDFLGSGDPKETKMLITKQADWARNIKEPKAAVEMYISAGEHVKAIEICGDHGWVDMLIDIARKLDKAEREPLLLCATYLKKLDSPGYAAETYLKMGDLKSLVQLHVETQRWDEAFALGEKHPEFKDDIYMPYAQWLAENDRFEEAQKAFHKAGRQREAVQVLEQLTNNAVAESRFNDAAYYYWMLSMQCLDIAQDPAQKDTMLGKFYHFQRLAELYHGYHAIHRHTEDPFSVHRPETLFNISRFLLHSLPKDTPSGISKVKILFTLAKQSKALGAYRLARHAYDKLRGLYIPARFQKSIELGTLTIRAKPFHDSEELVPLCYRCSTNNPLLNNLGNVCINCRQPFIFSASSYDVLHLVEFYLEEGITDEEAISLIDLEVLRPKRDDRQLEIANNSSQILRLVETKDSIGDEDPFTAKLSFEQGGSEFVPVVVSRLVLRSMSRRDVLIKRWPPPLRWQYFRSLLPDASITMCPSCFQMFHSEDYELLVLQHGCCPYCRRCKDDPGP
Experiment: cryo-EM structure; IFT-A complex co-expressed in HEK293F and co-purified; composite map from the IFT-A and IFT-A (-IFT139) datasets; 20 mM Tris-HCl pH 8.0, 200 mM NaCl, 2 mM DTT, 2 mM FFC-8 added; both purified

B1: IFT121 (WDR35) (protein, UniProt Q9P2L0 1-1181)
chain: MFFYLSKKISIPNNVKLQCVSWNKEQGFIACGGEDGLLKVLKLETQTDDAKLRGLAAPSNLSMNQTLEGHSGSVQVVTWNEQYQKLTTSDENGLIIVWMLYKGSWIEEMINNRNKSVVRSMSWNADGQKICIVYEDGAVIVGSVDGNRIWGKDLKGIQLSHVTWSADSKVLLFGMANGEIHIYDNQGNFMIKMKLSCLVNVTGAISIAGIHWYHGTEGYVEPDCPCLAVCFDNGRCQIMRHENDQNPVLIDTGMYVVGIQWNHMGSVLAVAGFQKAAMQDKDVNIVQFYTPFGEHLGTLKVPGKEISALSWEGGGLKIALAVDSFIYFANIRPNYKWGYCSNTVVYAYTRPDRPEYCVVFWDTKNNEKYVKYVKGLISITTCGDFCILATKADENHPQEENEMETFGATFVLVLCNSIGTPLDPKYIDIVPLFVAMTKTHVIAASKEAFYTWQYRVAKKLTALEINQITRSRKEGRERIYHVDDTPSGSMDGVLDYSKTIQGTRDPICAITASDKILIVGRESGTIQRYSLPNVGLIQKYSLNCRAYQLSLNCNSSRLAIIDISGVLTFFDLDARVTDSTGQQVVGELLKLERRDVWDMKWAKDNPDLFAMMEKTRMYVFRNLDPEEPIQTSGYICNFEDLEIKSVLLDEILKDPEHPNKDYLINFEIRSLRDSRALIEKVGIKDASQFIEDNPHPRLWRLLAEAALQKLDLYTAEQAFVRCKDYQGIKFVKRLGKLLSESMKQAEVVGYFGRFEEAERTYLEMDRRDLAIGLRLKLGDWFRVLQLLKTGSGDADDSLLEQANNAIGDYFADRQKWLNAVQYYVQGRNQERLAECYYMLEDYEGLENLAISLPENHKLLPEIAQMFVRVGMCEQAVTAFLKCSQPKAAVDTCVHLNQWNKAVELAKNHSMKEIGSLLARYASHLLEKNKTLDAIELYRKANYFFDAAKLMFKIADEEAKKGSKPLRVKKLYVLSALLIEQYHEQMKNAQRGKVKGKSSEATSALAGLLEEEVLSTTDRFTDNAWRGAEAYHFFILAQRQLYEGCVDTALKTALHLKDYEDIIPPVEIYSLLALCACASRAFGTCSKAFIKLKSLETLSSEQKQQYEDLALEIFTKHTSKDNRKPELDSLMEGGEGKLPTCVATGSPITEYQFWMCSVCKHGVLAQEISHYSFCPLCHSPVG
With B1 the binding was “binds”.
